Experimental data: PubChem BioAssay AID1259254 (NCATS, 2017)

Screen: 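Genome-wide screen for genes that prevent DNA re-replication in cancer cells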 (primary screen)
Cells: human HCT116 colorectal cancer cells
Knock-down reagent: single siRNA against human genes
Timing: 3 days
Measurement: 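Nuclei stained with Hoechst and imaged; cell-cycle phase assigned by DNA content; G2 share scaled per plate, non-targeting siRNA 0%, GMNN siRNA 100%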
Scale: G2 robust z-score and G2 cells, % of GMNN control: higher = more G2 cells, more excess DNA replication; raw share of cells in G2: higher = larger share of cells with G2 DNA content
Call rule: 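An siRNA counts as active if its G2 robust z-score lies at least 5 MADs above the screen median; here such calls match roughly 38% of GMNN control or more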
Here is a random part of about 59,000 reagents. In the full data, about 1,550 (2.6%) were called active. 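G2 share is only a proxy for re-replication; each gene was hit by three separate siRNAs, and active genes were retested.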 The raw values are shown without normalisation. Entries without a mark were called inactive. Reagents against one gene are numbered here. Reagent sequences are not shown. Not given: the amount of reagent.

| gene knocked down | reagent | G2 robust z-score | G2 cells, % of GMNN control | raw share of cells in G2 (%) |
| --- | --- | --- | --- | --- |
| CPVL (GeneID 54504) | 1 | -0.0585 | 2.56 | 6.45 |
| CPVL (GeneID 54504) | 2 | 3.15 | 25.1 | 13.8 |
| CPVL (GeneID 54504) | 3 | 0.429 | 5.99 | 6.14 |
| NELFB (GeneID 25920) | 1 | 1.46 | 13.2 | 9.39 |
| NELFB (GeneID 25920) | 2 | -0.396 | 0.178 | 4.02 |
| NELFB (GeneID 25920) | 3 | 0.615 | 7.3 | 5.85 |
| LARP7 (GeneID 51574) | 1 | -1.23 | -5.67 | 3.38 |
| LARP7 (GeneID 51574) | 2 | 6.52 (active) | 48.9 | 22.3 |
| LARP7 (GeneID 51574) | 3 | 0.172 | 4.18 | 5.4 |
| PTPN13 (GeneID 5783) | 1 | 0.101 | 3.68 | 5.99 |
| PTPN13 (GeneID 5783) | 2 | 0.129 | 3.87 | 5.47 |
| PTPN13 (GeneID 5783) | 3 | -0.35 | 0.502 | 3.65 |
| GRK4 (GeneID 2868) | 1 | -0.791 | -2.6 | 4.75 |
| GRK4 (GeneID 2868) | 2 | -0.743 | -2.26 | 4.65 |
| GRK4 (GeneID 2868) | 3 | 0.787 | 8.51 | 7.02 |
| BLVRB (GeneID 645) | 1 | 0.401 | 5.79 | 6.15 |
| BLVRB (GeneID 645) | 2 | -0.115 | 2.16 | 5.45 |
| BLVRB (GeneID 645) | 3 | 0.844 | 8.9 | 8.24 |
| ARL17B (GeneID 100506084) | 1 | -0.403 | 0.13 | 3.67 |
| ARL17B (GeneID 100506084) | 2 | 1.03 | 10.2 | 7.28 |
| ARL17B (GeneID 100506084) | 3 | -0.336 | 0.6 | 3.32 |
| GID8 (GeneID 54994) | 1 | -0.0805 | 2.4 | 4.46 |
| GID8 (GeneID 54994) | 2 | 0.589 | 7.11 | 7.27 |
| GID8 (GeneID 54994) | 3 | -0.122 | 2.11 | 3.89 |
| CNGB3 (GeneID 54714) | 1 | 0.945 | 9.62 | 8.79 |
| CNGB3 (GeneID 54714) | 2 | -0.692 | -1.9 | 4.14 |
| CNGB3 (GeneID 54714) | 3 | 1.12 | 10.8 | 8.6 |
| SNRNP200 (GeneID 23020) | 1 | 1.3 | 12.1 | 8.2 |
| SNRNP200 (GeneID 23020) | 2 | 1.75 | 15.3 | 9.09 |
| SNRNP200 (GeneID 23020) | 3 | 0.526 | 6.67 | 9.05 |
| GBF1 (GeneID 8729) | 1 | -1.04 | -4.32 | 3.16 |
| GBF1 (GeneID 8729) | 2 | -0.874 | -3.18 | 4.15 |
| GBF1 (GeneID 8729) | 3 | 0.6 | 7.19 | 7.8 |
| HNRNPA1L2 (GeneID 144983) | 1 | 0.671 | 7.69 | 9.62 |
| HNRNPA1L2 (GeneID 144983) | 2 | 3.29 | 26.1 | 14.3 |
| HNRNPA1L2 (GeneID 144983) | 3 | 1.15 | 11.1 | 9.35 |
| GKAP1 (GeneID 80318) | 1 | 2.42 | 20 | 11.4 |
| GKAP1 (GeneID 80318) | 2 | -0.206 | 1.51 | 5.35 |
| GKAP1 (GeneID 80318) | 3 | 1.31 | 12.2 | 10.5 |
| PRELID2 (GeneID 153768) | 1 | 3.72 | 29.1 | 14 |
| PRELID2 (GeneID 153768) | 2 | 1.09 | 10.7 | 6.53 |
| PRELID2 (GeneID 153768) | 3 | -0.0532 | 2.59 | 3.58 |
| PANX1 (GeneID 24145) | 1 | 2.17 | 18.2 | 11.3 |
| PANX1 (GeneID 24145) | 2 | -0.649 | -1.6 | 3.25 |
| PANX1 (GeneID 24145) | 3 | 0.969 | 9.79 | 6.72 |
| USP16 (GeneID 10600) | 1 | 0.688 | 7.81 | 8.28 |
| USP16 (GeneID 10600) | 2 | -1.31 | -6.25 | 2.7 |
| USP16 (GeneID 10600) | 3 | 0.277 | 4.92 | 5.74 |
| PRCC (GeneID 5546) | 1 | 0.535 | 6.73 | 7.84 |
| PRCC (GeneID 5546) | 2 | -0.22 | 1.42 | 4.78 |
| PRCC (GeneID 5546) | 3 | -0.113 | 2.17 | 4.14 |
| HOXD1 (GeneID 3231) | 1 | 0.00496 | 3 | 6.13 |
| HOXD1 (GeneID 3231) | 2 | -0.319 | 0.723 | 5.96 |
| HOXD1 (GeneID 3231) | 3 | -0.289 | 0.932 | 4.54 |
| NIPA2 (GeneID 81614) | 1 | 0.865 | 9.05 | 9.2 |
| NIPA2 (GeneID 81614) | 2 | -0.92 | -3.5 | 2.93 |
| NIPA2 (GeneID 81614) | 3 | -0.884 | -3.25 | 3.58 |
| ZNF770 (GeneID 54989) | 1 | -0.0344 | 2.73 | 4.58 |
| ZNF770 (GeneID 54989) | 2 | -0.156 | 1.87 | 5.06 |
| ZNF770 (GeneID 54989) | 3 | -0.454 | -0.228 | 3.12 |
| TMEM127 (GeneID 55654) | 1 | 0.268 | 4.85 | 6.39 |
| TMEM127 (GeneID 55654) | 2 | -0.379 | 0.299 | 4.26 |
| TMEM127 (GeneID 55654) | 3 | 0.344 | 5.39 | 4.86 |
| PDE5A (GeneID 8654) | 1 | -0.923 | -3.53 | 3.44 |
| PDE5A (GeneID 8654) | 2 | -0.972 | -3.87 | 3.9 |
| PDE5A (GeneID 8654) | 3 | -0.0645 | 2.51 | 5.68 |
| CABCOCO1 (GeneID 219621) | 1 | 0.0499 | 3.32 | 4.78 |
| CABCOCO1 (GeneID 219621) | 2 | -0.422 | -0.00356 | 3.13 |
| CABCOCO1 (GeneID 219621) | 3 | -0.379 | 0.299 | 3.29 |
| PIP5K1A (GeneID 8394) | 1 | -0.342 | 0.562 | 5.79 |
| PIP5K1A (GeneID 8394) | 2 | 2.87 | 23.2 | 13.2 |
| PIP5K1A (GeneID 8394) | 3 | -0.622 | -1.41 | 3.53 |
| CYB561D2 (GeneID 11068) | 1 | -1.06 | -4.48 | 1.5 |
| CYB561D2 (GeneID 11068) | 2 | 2.43 | 20.1 | 12.9 |
| CYB561D2 (GeneID 11068) | 3 | 3.35 | 26.5 | 15.1 |
| CLU (GeneID 1191) | 1 | 0.00208 | 2.98 | 6.7 |
| CLU (GeneID 1191) | 2 | -0.278 | 1.01 | 4.46 |
| CLU (GeneID 1191) | 3 | 3.47 | 27.4 | 14.2 |
| LONRF3 (GeneID 79836) | 1 | 0.973 | 9.81 | 8.52 |
| LONRF3 (GeneID 79836) | 2 | -0.258 | 1.15 | 4.81 |
| LONRF3 (GeneID 79836) | 3 | -0.245 | 1.24 | 2.72 |
| PREX2 (GeneID 80243) | 1 | 1.35 | 12.5 | 10.6 |
| PREX2 (GeneID 80243) | 2 | 0.462 | 6.22 | 6.45 |
| PREX2 (GeneID 80243) | 3 | 0.141 | 3.96 | 6.25 |
| NAIPP3 (GeneID 643784) | 1 | -0.0633 | 2.52 | 4.6 |
| NAIPP3 (GeneID 643784) | 2 | 2.43 | 20 | 11 |
| NAIPP3 (GeneID 643784) | 3 | 0.355 | 5.47 | 4.98 |

Part of the list above in another layout:
{"gene knocked down":"CNGB3 (GeneID 54714)","reagent":1,"G2 robust z-score":0.945,"G2 cells, % of GMNN control":9.62,"raw share of cells in G2 (%)":8.79}
{"gene knocked down":"CNGB3 (GeneID 54714)","reagent":2,"G2 robust z-score":-0.692,"G2 cells, % of GMNN control":-1.9,"raw share of cells in G2 (%)":4.14}
{"gene knocked down":"CNGB3 (GeneID 54714)","reagent":3,"G2 robust z-score":1.12,"G2 cells, % of GMNN control":10.8,"raw share of cells in G2 (%)":8.6}
{"gene knocked down":"SNRNP200 (GeneID 23020)","reagent":1,"G2 robust z-score":1.3,"G2 cells, % of GMNN control":12.1,"raw share of cells in G2 (%)":8.2}
{"gene knocked down":"SNRNP200 (GeneID 23020)","reagent":2,"G2 robust z-score":1.75,"G2 cells, % of GMNN control":15.3,"raw share of cells in G2 (%)":9.09}
